PubChem BioAssay AID1259314 | Drosophila RNAi Screening Center – 2017

Aim: 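Modifiers of manganese chloride toxicity in fly cells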 (primary screen)
Cell system: Drosophila S2R+ cells
Knock-down reagent: long dsRNA against Drosophila genes
Duration: 5 days (4 days knock-down, then 1 day metal exposure)
Challenge: manganese chloride added to 15 mM for 24 hours
Detection: 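Luciferase ATP signal used as a proxy for viable cell number, reported as one averaged z-score per dsRNA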
Direction: mean ATP z-score: higher = more ATP than the plate average, more viable cells under manganese
Call rule: 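Called active when the mean ATP z-score is above 1.5 or below -1.5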
Meaning of the calls: active = strong ATP change, up or down; inactive = no strong ATP change
This is a random part of about 3,100 deposited reagents. 289 of all reagents (9.3%) were called active. 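Active includes both higher and lower ATP than plate average; check the z-score sign for direction.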 Entries without a mark were called inactive. A plus sign joins genes that one reagent is predicted to hit. Not stated in the record: the amount of reagent.

BBIP1 + CG8135 [DRSC16384]
- mean ATP z-score: -0.00922

BBIP1 + CG8135 [DRSC26052]
- mean ATP z-score: -0.0315

Tsp86D (GeneID 41310) [DRSC15607]
- mean ATP z-score: 3.14 (active)

stet (GeneID 38169) [DRSC08246]
- mean ATP z-score: 0.0765

stet (GeneID 38169) [DRSC08283]
- mean ATP z-score: -0.144

CG2187 (GeneID 43743) [DRSC15425]
- mean ATP z-score: -0.0379

CG2187 (GeneID 43743) [DRSC25548]
- mean ATP z-score: 0.235

Nha1 (GeneID 33961) [DRSC02109]
- mean ATP z-score: -0.135

Nha1 (GeneID 33961) [DRSC39661]
- mean ATP z-score: 0.158

Flo1 (GeneID 36726) [DRSC07427]
- mean ATP z-score: 0.974

Flo1 (GeneID 36726) [DRSC28122]
- mean ATP z-score: 0.967

CG10761 (GeneID 31749) [DRSC17753]
- mean ATP z-score: 0.259

CG10761 (GeneID 31749) [DRSC27665]
- mean ATP z-score: 1.13

MstProx + Mst84Da [DRSC12597]
- mean ATP z-score: 0.343

stol (GeneID 34921) [DRSC01956]
- mean ATP z-score: 0.219

stol (GeneID 34921) [DRSC39841]
- mean ATP z-score: -1.26

emei (GeneID 39250) [DRSC10897]
- mean ATP z-score: 0.651

emei (GeneID 39250) [DRSC22684]
- mean ATP z-score: 0.257

shakB (GeneID 33062) [DRSC20585]
- mean ATP z-score: -0.166

shakB (GeneID 33062) [DRSC22817]
- mean ATP z-score: -0.153

shakB (GeneID 33062) [DRSC26262]
- mean ATP z-score: 0.285

5-HT2B (GeneID 41017) [DRSC16360]
- mean ATP z-score: -0.672

5-HT2B (GeneID 41017) [DRSC16362]
- mean ATP z-score: -1.11

5-HT2B (GeneID 41017) [DRSC25577]
- mean ATP z-score: 0.87

Nhe1 (GeneID 33167) [DRSC00762]
- mean ATP z-score: -0.465

Nhe1 (GeneID 33167) [DRSC39761]
- mean ATP z-score: -0.57

Elo68alpha (GeneID 317841) [DRSC22725]
- mean ATP z-score: -0.0774

Sarm (GeneID 38895) [DRSC08906]
- mean ATP z-score: 0.0215

Sarm (GeneID 38895) [DRSC08907]
- mean ATP z-score: 0.211

Sarm (GeneID 38895) [DRSC10038]
- mean ATP z-score: 0.757

Sarm (GeneID 38895) [DRSC10927]
- mean ATP z-score: 0.00311

Sarm (GeneID 38895) [DRSC10929]
- mean ATP z-score: -0.89

Atf-2 + CG44247 [DRSC04130]
- mean ATP z-score: -0.873

Atf-2 + CG44247 [DRSC04413]
- mean ATP z-score: -0.683

ppk9 (GeneID 37498) [DRSC04134]
- mean ATP z-score: -0.723

ppk9 (GeneID 37498) [DRSC04135]
- mean ATP z-score: -1.34

mthl9 (GeneID 38056) [DRSC08506]
- mean ATP z-score: -0.0463

mthl9 (GeneID 38056) [DRSC39784]
- mean ATP z-score: 0.814

Arl6IP1 (GeneID 42027) [DRSC14231]
- mean ATP z-score: -0.0957

Arl6IP1 (GeneID 42027) [DRSC39486]
- mean ATP z-score: 1.42

Or42b (GeneID 35516) [DRSC04913]
- mean ATP z-score: -0.707

Or42b (GeneID 35516) [DRSC27273]
- mean ATP z-score: -0.478

NijA (GeneID 39215) [DRSC10637]
- mean ATP z-score: 1.76 (active)

ste24b (GeneID 36907) [DRSC07315]
- mean ATP z-score: -1.26

ste24b (GeneID 36907) [DRSC24340]
- mean ATP z-score: -0.64

fzo (GeneID 42745) [DRSC16954]
- mean ATP z-score: -0.149

fzo (GeneID 42745) [DRSC39864]
- mean ATP z-score: 0.389

mthl2 (GeneID 38636) [DRSC10287]
- mean ATP z-score: -0.994

mthl2 (GeneID 38636) [DRSC27003]
- mean ATP z-score: 0.141

VGlut (GeneID 33427) [DRSC21821]
- mean ATP z-score: -0.283

VGlut (GeneID 33427) [DRSC39749]
- mean ATP z-score: -0.523

stan (GeneID 36125) [DRSC07697]
- mean ATP z-score: 0.39

stan (GeneID 36125) [DRSC39642]
- mean ATP z-score: -0.508

NaPi-III (GeneID 39255) [DRSC10893]
- mean ATP z-score: -0.274

NaPi-III (GeneID 39255) [DRSC28299]
- mean ATP z-score: 0.736

CG30008 (GeneID 246388) [DRSC21576]
- mean ATP z-score: -0.653

CG30008 (GeneID 246388) [DRSC27726]
- mean ATP z-score: 0.447

CG1824 (GeneID 32208) [DRSC19796]
- mean ATP z-score: -0.474

CG1824 (GeneID 32208) [DRSC39705]
- mean ATP z-score: 0.921

Gr2a (GeneID 31093) [DRSC18603]
- mean ATP z-score: -0.361

Gr2a (GeneID 31093) [DRSC39727]
- mean ATP z-score: -0.206

No new results follow: entries from further up.
ppk9 (GeneID 37498) [DRSC04134]
- mean ATP z-score: -0.723

ppk9 (GeneID 37498) [DRSC04135]
- mean ATP z-score: -1.34

mthl9 (GeneID 38056) [DRSC08506]
- mean ATP z-score: -0.0463

mthl9 (GeneID 38056) [DRSC39784]
- mean ATP z-score: 0.814

Arl6IP1 (GeneID 42027) [DRSC14231]
- mean ATP z-score: -0.0957

Arl6IP1 (GeneID 42027) [DRSC39486]
- mean ATP z-score: 1.42

Or42b (GeneID 35516) [DRSC04913]
- mean ATP z-score: -0.707
